Data as given in PubChem BioAssay AID652243 (Drosophila RNAi Screening Center, 2013).
Assay: 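Knock-downs that decrease or increase androgen receptor reporter signal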 (primary screen). Cells: Drosophila S2R+ cells. Reagent: long dsRNA against Drosophila genes. Time to read-out: 72 h (48 h, then 24 h hormone). Conditions: synthetic androgen R1881 at 10 nM for 24 h. Measured: 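Per-well raw luminescence of the androgen-driven firefly reporter and of the Renilla control, two replicates each, without normalisation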. Reading the numbers: firefly reporter light: higher = more light from androgen-responsive reporter; Renilla control light: higher = more constitutive control signal (cell number, transfection). Rule for the call: 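Hit when the log firefly-to-Renilla ratio dropped or increased by a fixed fold versus the mean of GFP or LacZ controls across duplicate plates; lowering cut given as 1.5 and as 3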. Meaning of the calls: active = hit: reporter lowered or raised; inactive = no hit.
The deposit covers about 24,000 reagents; this is an unselected part of those that have a named target and a result. In the full data, 246 (1%) were called active. 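Plates not normalised; calls are printed but the firefly/Renilla ratio behind them is not deposited; fold cut for lowering reported inconsistently.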 Raw values are not corrected between plates. A plus sign joins genes that one reagent is predicted to hit. Not stated in the record: the amount of reagent.

| Target gene | DRSC id | firefly reporter light, replicate 1 | firefly reporter light, replicate 2 | Renilla control light, replicate 1 | Renilla control light, replicate 2 | outcome |
| --- | --- | --- | --- | --- | --- | --- |
| CG7110 (GeneID 34757) | DRSC03011 | 6.14e5 | 6.05e5 | 1.49e6 | 1.89e6 | inactive |
| CG7110 (GeneID 34757) | DRSC03012 | 2.44e5 | 2.29e5 | 1.53e6 | 1.70e6 | inactive |
| C3G (GeneID 31618) | DRSC17929 | 3.84e5 | 3.68e5 | 3.96e6 | 3.03e6 | inactive |
| C3G (GeneID 31618) | DRSC23077 | 4.69e5 | 4.74e5 | 9.18e5 | 1.06e6 | inactive |
| C3G (GeneID 31618) | DRSC29081 | 5.31e5 | 6.85e5 | 1.43e6 | 1.13e6 | inactive |
| CG34382 (GeneID 5740788) | DRSC10166 | 1.70e5 | 1.55e5 | 1.57e6 | 1.93e6 | inactive |
| CG34382 (GeneID 5740788) | DRSC10167 | 1.38e5 | 1.75e5 | 1.95e6 | 2.44e6 | inactive |
| CG11672 (GeneID 40977) | DRSC14344 | 1.42e5 | 1.15e5 | 3.06e6 | 2.58e6 | inactive |
| PNPase (GeneID 43710) | DRSC14304 | 1.18e5 | 1.05e5 | 1.08e6 | 7.85e5 | inactive |
| CG34189 (GeneID 5740826) | DRSC38723 | 1.06e6 | 7.78e5 | 1.45e6 | 2.00e6 | inactive |
| Obp44a (GeneID 35789) | DRSC06838 | 2.47e5 | 3.79e5 | 1.51e6 | 1.99e6 | inactive |
| Obp44a (GeneID 35789) | DRSC26785 | 2.90e5 | 2.95e5 | 4.79e5 | 5.52e5 | inactive |
| Ns4 (GeneID 35338) | DRSC03199 | 8.25e5 | 1.29e6 | 2.27e6 | 3.19e6 | inactive |
| Ns4 (GeneID 35338) | DRSC27230 | 3.03e5 | 2.63e5 | 6.08e5 | 5.21e5 | inactive |
| CG14014 (GeneID 33784) | DRSC02345 | 54852 | 1.13e5 | 8.20e5 | 8.27e5 | inactive |
| CG18662 (GeneID 50437) | DRSC02691 | 2.44e5 | 2.61e5 | 1.44e6 | 1.42e6 | inactive |
| slo (GeneID 42940) | DRSC17057 | 59113 | 50026 | 4.85e5 | 4.26e5 | inactive |
| slo (GeneID 42940) | DRSC23295 | 8.83e5 | 9.28e5 | 1.38e6 | 1.17e6 | inactive |
| CG33521 (GeneID 3346141) | DRSC17211 | 3.65e5 | 3.24e5 | 3.37e6 | 1.77e6 | inactive |
| CG33521 (GeneID 3346141) | DRSC22919 | 4.19e5 | 8.00e5 | 9.54e5 | 2.22e6 | inactive |
| CG33521 (GeneID 3346141) | DRSC29186 | 6.37e5 | 4.91e5 | 1.16e6 | 1.29e6 | inactive |
| Spt-I (GeneID 36448) | DRSC06860 | 4.60e5 | 2.96e5 | 3.03e6 | 2.57e6 | inactive |
| Spt-I (GeneID 36448) | DRSC26069 | 3.37e5 | 2.35e5 | 8.96e5 | 3.24e5 | inactive |
| Myo28B1 (GeneID 53515) | DRSC03375 | 1.72e5 | 1.95e5 | 2.13e6 | 2.04e6 | inactive |
| Myo28B1 (GeneID 53515) | DRSC28780 | 3.78e5 | 2.97e5 | 9.39e5 | 9.02e5 | inactive |
| alpha-Est4aPsi (GeneID 3772290) | DRSC12473 | 3.09e5 | 3.52e5 | 5.72e5 | 6.33e5 | inactive |
| CG42260 (GeneID 37614) | DRSC04172 | 3.45e5 | 2.91e5 | 2.22e6 | 1.86e6 | inactive |
| CG42260 (GeneID 37614) | DRSC04385 | 3.03e5 | 2.96e5 | 2.02e6 | 2.47e6 | inactive |
| Ac3 (GeneID 35419) | DRSC03692 | 5.91e5 | 3.31e5 | 1.58e6 | 1.10e6 | inactive |
| Drl-2 (GeneID 36436) | DRSC05393 | 73248 | 1.01e5 | 3.71e5 | 4.00e5 | inactive |
| Drl-2 (GeneID 36436) | DRSC06155 | 5.33e5 | 2.93e5 | 2.17e6 | 2.18e6 | inactive |
| Drl-2 (GeneID 36436) | DRSC06858 | 3.52e5 | 2.57e5 | 1.92e6 | 1.94e6 | inactive |
| Drl-2 (GeneID 36436) | DRSC36862 | – | – | – | – | inactive |
| Drl-2 (GeneID 36436) | DRSC36863 | – | – | – | – | inactive |
| CrebA (GeneID 39682) | DRSC11122 | 6609 | 16141 | 1.30e5 | 1.43e5 | inactive |
| CG5267 (GeneID 36875) | DRSC06928 | 87656 | 63407 | 7.93e5 | 7.93e5 | inactive |
| CG10909 (GeneID 41581) | DRSC14282 | 70868 | 80290 | 1.09e6 | 1.17e6 | inactive |
| CG1598 (GeneID 35690) | DRSC06598 | 1.99e5 | 1.92e5 | 1.84e6 | 1.78e6 | inactive |
| CG11158 (GeneID 32327) | DRSC19389 | 4.71e5 | 6.30e5 | 3.66e6 | 4.02e6 | inactive |
| CG12493 (GeneID 38575) | DRSC08279 | 2.43e5 | 2.71e5 | 2.93e6 | 3.16e6 | inactive |
| CG12493 (GeneID 38575) | DRSC25535 | 1.08e6 | 1.14e6 | 1.37e6 | 1.35e6 | inactive |
| THG (GeneID 34876) | DRSC01896 | 1.61e5 | 2.18e5 | 2.75e6 | 3.08e6 | inactive |
| CG13992 (GeneID 33831) | DRSC02324 | 2.16e5 | 2.31e5 | 7.77e5 | 1.02e6 | inactive |
| Secp43 (GeneID 33652) | DRSC00454 | 1.20e5 | 65656 | 9.82e5 | 1.01e6 | inactive |
| Secp43 (GeneID 33652) | DRSC27411 | 2.64e5 | 2.72e5 | 8.84e5 | 9.57e5 | inactive |
| homer (GeneID 33944) | DRSC03547 | 1.05e6 | 1.26e6 | 2.06e6 | 1.97e6 | inactive |
| homer (GeneID 33944) | DRSC29162 | 1.08e6 | 8.27e5 | 1.23e6 | 1.42e6 | inactive |
| rad50 (GeneID 37564) | DRSC04523 | 8.68e5 | 5.99e5 | 1.05e6 | 1.04e6 | inactive |
| cav (GeneID 42881) | DRSC15995 | 85669 | 1.25e5 | 5.34e5 | 6.39e5 | inactive |
| cav (GeneID 42881) | DRSC26206 | 3.34e5 | 3.24e5 | 7.43e5 | 8.22e5 | inactive |
| Cat (GeneID 40048) | DRSC11110 | 2.52e5 | 2.19e5 | 1.82e6 | 2.16e6 | inactive |
| Cat (GeneID 40048) | DRSC24077 | 9.24e5 | 8.86e5 | 9.50e5 | 7.53e5 | inactive |
| Cat (GeneID 40048) | DRSC38942 | 1.11e6 | 1.01e6 | 1.69e6 | 1.86e6 | inactive |
| CG14105 (GeneID 39507) | DRSC10107 | 2.49e5 | 2.50e5 | 2.69e6 | 2.20e6 | inactive |
| CG33774 + l(2)k10201 | DRSC37863 | 1.13e6 | 1.09e6 | 1.13e6 | 1.54e6 | inactive |
| Cyp4s3 (GeneID 32444) | DRSC20241 | 4.10e5 | 4.53e5 | 3.69e6 | 3.96e6 | inactive |
| Cyp4s3 (GeneID 32444) | DRSC22340 | 5.72e5 | 6.40e5 | 1.44e6 | 1.27e6 | inactive |
| Cyp4s3 (GeneID 32444) | DRSC24027 | 4.90e5 | 3.06e5 | 6.31e5 | 5.05e5 | inactive |

No new results follow: an excerpt of the list.
| Target gene | DRSC id | firefly reporter light, replicate 1 | firefly reporter light, replicate 2 | Renilla control light, replicate 1 | Renilla control light, replicate 2 | outcome |
| --- | --- | --- | --- | --- | --- | --- |
| CG33521 (GeneID 3346141) | DRSC17211 | 3.65e5 | 3.24e5 | 3.37e6 | 1.77e6 | inactive |
| CG33521 (GeneID 3346141) | DRSC22919 | 4.19e5 | 8.00e5 | 9.54e5 | 2.22e6 | inactive |
| CG33521 (GeneID 3346141) | DRSC29186 | 6.37e5 | 4.91e5 | 1.16e6 | 1.29e6 | inactive |
| Spt-I (GeneID 36448) | DRSC06860 | 4.60e5 | 2.96e5 | 3.03e6 | 2.57e6 | inactive |
| Spt-I (GeneID 36448) | DRSC26069 | 3.37e5 | 2.35e5 | 8.96e5 | 3.24e5 | inactive |
